The nature of the experiment: IkB Signaling. To be noted: ABC-DLBCL IkBa-CBG/CBR dual luciferase ratio (green luciferase fused to IkBa over red control in OCI-Ly3 lymphoma cells), 4 h. The gist of the method: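 Curves were fitted separately to fusion (green), unfused (red) and ratio luminescence, then classed by r2, magnitude and activity. Cells: OCI-Ly3, 4 h compound plus doxycycline at 37C; 10 uM MG-132 defined full response.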
Setting [1] is: measured here: control luc red channel unless noted.

This is one part of the list. These are further read-outs of the screen, such as a control signal, another cell line or another target. No call is given for them. Compounds called inactive in the main read-out are mostly missing here. The note in brackets gives the kind of curve behind each potency; many fits are weak.

Consider `COc1ccc(N2CCN(C(CNC(=O)C(=O)NCc3ccc(C)cc3)c3cccnc3)CC2)cc1` (stereo not given), for which the concentration at half-maximal activity (AC50) (usually the concentration giving half of the maximal activity seen) under setting [1] was 31.6 µM [falling, single point].

For the compound `CC(C)Oc1ccc(CNC(=O)C2CCN(C(=O)N3CCOc4ccc(Cl)cc43)CC2)cc1`, under setting [1], the concentration at half-maximal activity (AC50) was 15.8 µM [falling, single point].

Take `Cn1c(=O)n(CCCOc2ccc(Cl)cc2)c2ccccc21`: the AC50 under setting [1] was 15.8 µM [falling, single point].

As to `O=C(Cn1c(=O)n(-c2ccc(Cl)cc2)c(=O)c2sc3ccccc3c21)NC1CCCCC1`, the concentration at half-maximal activity (AC50) under setting [1] is 15.8 µM [falling, partial curve].

As to `COc1cccc(NC(=O)C(=O)NCC(c2ccc3c(c2)OCO3)N2CCOCC2)c1` (stereo not given), under setting [1], the AC50 was 0.0316 µM [falling, full curve].

With `COc1ccc(-c2cc(C(F)(F)F)nc(NCc3ccccc3)n2)cc1`, the AC50 under setting [1] was 0.316 µM [falling, partial curve].

Regarding `Fc1ccc(C(Nc2ccc(Cl)c(C(F)(F)F)c2)c2nnc(-c3ccccc3)o2)cc1` (stereo not given), the AC50 under setting [1] was 20 µM [falling, single point].

Take `O=C(c1cc(-c2ccco2)on1)N1CCN(c2ccccc2)CC1`: the half-maximal activity concentration (AC50) under setting [1] is 5.01 µM [falling, partial curve].

Consider `O=C(Nc1ccc(Br)cc1)c1ccc(Br)c(S(=O)(=O)N2CCCCC2)c1`, for which the AC50 under setting [1] is 10 µM [falling, partial curve].

In the case of `Cc1cn2c(=O)cc(COC(=O)c3cccc(NC(=O)COc4ccc(Cl)cc4)c3)nc2s1`, under setting [1], the AC50 was 2 µM [falling, full curve].

Take `Cc1ccc(C(=O)c2cn(Cc3ccccc3F)c3cc4c(cc3c2=O)OCO4)cc1`: the AC50 under setting [1] is 39.8 µM [falling, single point].

Turning to `CCc1ccccc1N(C)S(=O)(=O)c1ccc2[nH]cc(C(=O)NCCOC)c(=O)c2c1`, under setting [1], the AC50 is 31.6 µM [falling, single point].

Turning to `Cc1csc2nc(CCNS(=O)(=O)c3ccccc3)cn12`, the AC50 under setting [1] is 39.8 µM [rising, single point].

As to `CN(C)c1ccc(C(CNC(=O)c2ccccc2F)N2CCc3ccccc32)cc1` (stereo not given), the AC50 under setting [1] was 10 µM [falling, partial curve].

For `Cc1nn(-c2ccccc2)c2c1N(CCCC(=O)NCc1ccc(Cl)cc1)C(=O)CS2`, the AC50 under setting [1] was 1.26 µM [falling, full curve, poor fit].

With `O=C(NCc1ccco1)c1c[nH]c2ccc(S(=O)(=O)Nc3ccc(F)cc3F)cc2c1=O`, under setting [1], the concentration at half-maximal activity (AC50) is 25.1 µM [falling, single point].

Turning to `CN1CCN(C(=O)c2cnn(-c3cccc(Cl)c3)c2C2CCN(C(=O)OC(C)(C)C)CC2)CC1`, the AC50 under setting [1] was 39.8 µM [falling, single point].

On to `Cc1ccc(CN(Cc2ccco2)C(=O)COc2ccc(Cl)cc2Cl)cc1`, for which the concentration at half-maximal activity (AC50) under setting [1] was 15.8 µM [falling, partial curve].

For `CC(C)(C)c1ccc(S(=O)(=O)c2cnc(SCC(=O)Nc3ccc(F)c(Cl)c3)[nH]c2=O)cc1`, the AC50 under setting [1] is 10 µM [falling, partial curve].

Regarding `CCOc1ccc(NC(=O)Cc2ccc(NC(=O)N3CCCCc4ccccc43)cc2)cc1`, under setting [1], the AC50 was 25.1 µM [falling, single point].

Regarding `COC(=O)c1ccc([C@H]2Nc3ccc(S(=O)(=O)Nc4ccc(C)cc4)cc3[C@H]3C=CC[C@H]32)cc1`, the half-maximal activity concentration (AC50) under setting [1] is 25.1 µM [falling, partial curve].

Regarding `COc1ccc2ccccc2c1C1CC(=O)N2CN(C3CCCCC3)CSC2=C1C#N` (stereo not given), the AC50 under setting [1] was 7.94 µM [falling, partial curve].

With `COc1cc(-c2noc(-c3ccc(N4CCOCC4)c([N+](=O)[O-])c3)n2)cc(OC)c1OC`, the AC50 under setting [1] is 25.1 µM [falling, single point].

Turning to `Cc1ccc(NC(=O)CSc2nc3ccccc3c3nc(CCn4cncc4C)nn23)c(C)c1`, the AC50 under setting [1] was 0.251 µM [rising, full curve].

Take `Cc1ccc(OCC(=O)N(Cc2ccco2)Cc2ccco2)cc1`: the AC50 under setting [1] was 31.6 µM [falling, single point].

In the case of `Cc1ccc2cccc(S(=O)(=O)Nc3ccc4c(c3)OCO4)c2n1`, the AC50 under setting [1] is 25.1 µM [falling, partial curve].

`CCOc1ccc(CCNC(=O)Cc2ccc(NC(=O)N3CCSc4ncccc43)cc2)cc1`: under setting [1], the AC50 was 39.8 µM [falling, single point].

As to `COc1ccc(-n2nc(C(=O)N3CCN(c4cccc(C(F)(F)F)c4)CC3)c3c4ccccc4n(C)c3c2=O)cc1Cl`, under setting [1], the AC50 is 2.51 µM [rising, partial curve].

With `COc1ccc(-c2n[nH]c(C)c2-c2ccc(Cl)cc2)c(O)c1OC`, under setting [1], the AC50 was 10 µM [falling, partial curve].

`COc1cc(OC)cc(C(=O)Nc2nc(-c3nnn(-c4ccc(F)c(Cl)c4)c3C)ns2)c1`: under setting [1], the AC50 was 39.8 µM [rising, single point].

For the compound `O=C(CSc1nc(O)c(C/C=C/c2ccccc2)c(=O)[nH]1)Nc1cccc(F)c1`, the AC50 under setting [1] is 7.94 µM [falling, partial curve].

In the case of `COc1ccc(-c2csc3c2[N+]2=CCC=C2C3=O)cc1`, the AC50 (measured here: IkB-luc green channel) was 3.98 µM [rising, partial curve] and the AC50 (measured here: control luc red channel) was 1.58 µM [rising, partial curve].

As to `CCCCSc1nnc(-c2ccc(C)cc2)o1`, the half-maximal activity concentration (AC50) under setting [1] was 15.8 µM [falling, partial curve].

As for `CN(C(=O)c1oc(=O)c2ccccc2c1-c1ccccc1)c1cccc(Cl)c1`, the half-maximal activity concentration (AC50) under setting [1] is 12.6 µM [falling, partial curve].

In the case of `CCCn1c(=O)c2sccc2n2c(CCCC(=O)Nc3ccccc3F)nnc12`, the AC50 under setting [1] was 39.8 µM [falling, single point].

For the compound `Cc1ccc(N2CCN(C(=O)c3c(C)oc4nc(C)nc(N5CCCC5)c34)CC2)c(C)c1`, the half-maximal activity concentration (AC50) under setting [1] is 25.1 µM [falling, single point].

As for `COc1cccc(NS(=O)(=O)c2ccc(Br)s2)c1`, the AC50 under setting [1] was 7.94 µM [falling, partial curve].

Regarding `CCCCCCC(=O)N1CCC(c2nc3c(nnn3Cc3ccccc3Cl)c(=O)[nH]2)CC1`, the AC50 under setting [1] was 31.6 µM [falling, single point].

In the case of `Cc1cccc(-n2ncc(C(=O)NCc3ccco3)c2C2CCN(C(=O)OC(C)(C)C)CC2)c1`, the AC50 under setting [1] was 25.1 µM [falling, partial curve].

Values taken from PubChem BioAssay AID445 (National Center for Advancing Translational Sciences (NCATS), 2006).
